No constants are given. Whether binding was seen depends on the method and setting. In cells and extracts the contact can be indirect. Some results given as binding are weak or reduced against the parent protein; the word gives no strength.

Amino acid sequences for entries named in this document (tags omitted). Residues count along the entry.
UniProt P35869, residues 11-848: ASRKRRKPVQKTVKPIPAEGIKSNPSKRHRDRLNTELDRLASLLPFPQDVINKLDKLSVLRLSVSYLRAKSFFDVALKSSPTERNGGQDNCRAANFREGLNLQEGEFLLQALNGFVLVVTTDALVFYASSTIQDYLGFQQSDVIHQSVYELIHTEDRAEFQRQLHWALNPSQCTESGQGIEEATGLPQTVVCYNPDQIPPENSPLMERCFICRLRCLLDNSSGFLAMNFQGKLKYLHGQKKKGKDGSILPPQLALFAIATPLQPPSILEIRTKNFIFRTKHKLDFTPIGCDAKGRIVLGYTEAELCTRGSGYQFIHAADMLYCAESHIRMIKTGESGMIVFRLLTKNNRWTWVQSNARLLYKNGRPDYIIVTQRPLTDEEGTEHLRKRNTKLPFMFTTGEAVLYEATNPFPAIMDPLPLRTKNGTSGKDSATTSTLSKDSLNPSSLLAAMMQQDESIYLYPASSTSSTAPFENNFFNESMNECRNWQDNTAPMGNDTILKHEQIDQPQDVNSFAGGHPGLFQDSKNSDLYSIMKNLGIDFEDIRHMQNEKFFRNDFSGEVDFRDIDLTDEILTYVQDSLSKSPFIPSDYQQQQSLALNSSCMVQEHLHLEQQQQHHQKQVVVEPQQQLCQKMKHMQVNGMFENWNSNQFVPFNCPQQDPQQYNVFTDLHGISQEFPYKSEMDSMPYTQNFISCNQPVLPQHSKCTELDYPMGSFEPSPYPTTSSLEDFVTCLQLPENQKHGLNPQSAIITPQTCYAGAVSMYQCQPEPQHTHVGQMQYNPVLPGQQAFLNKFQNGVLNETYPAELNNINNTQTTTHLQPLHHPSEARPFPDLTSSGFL
UniProt Q13191: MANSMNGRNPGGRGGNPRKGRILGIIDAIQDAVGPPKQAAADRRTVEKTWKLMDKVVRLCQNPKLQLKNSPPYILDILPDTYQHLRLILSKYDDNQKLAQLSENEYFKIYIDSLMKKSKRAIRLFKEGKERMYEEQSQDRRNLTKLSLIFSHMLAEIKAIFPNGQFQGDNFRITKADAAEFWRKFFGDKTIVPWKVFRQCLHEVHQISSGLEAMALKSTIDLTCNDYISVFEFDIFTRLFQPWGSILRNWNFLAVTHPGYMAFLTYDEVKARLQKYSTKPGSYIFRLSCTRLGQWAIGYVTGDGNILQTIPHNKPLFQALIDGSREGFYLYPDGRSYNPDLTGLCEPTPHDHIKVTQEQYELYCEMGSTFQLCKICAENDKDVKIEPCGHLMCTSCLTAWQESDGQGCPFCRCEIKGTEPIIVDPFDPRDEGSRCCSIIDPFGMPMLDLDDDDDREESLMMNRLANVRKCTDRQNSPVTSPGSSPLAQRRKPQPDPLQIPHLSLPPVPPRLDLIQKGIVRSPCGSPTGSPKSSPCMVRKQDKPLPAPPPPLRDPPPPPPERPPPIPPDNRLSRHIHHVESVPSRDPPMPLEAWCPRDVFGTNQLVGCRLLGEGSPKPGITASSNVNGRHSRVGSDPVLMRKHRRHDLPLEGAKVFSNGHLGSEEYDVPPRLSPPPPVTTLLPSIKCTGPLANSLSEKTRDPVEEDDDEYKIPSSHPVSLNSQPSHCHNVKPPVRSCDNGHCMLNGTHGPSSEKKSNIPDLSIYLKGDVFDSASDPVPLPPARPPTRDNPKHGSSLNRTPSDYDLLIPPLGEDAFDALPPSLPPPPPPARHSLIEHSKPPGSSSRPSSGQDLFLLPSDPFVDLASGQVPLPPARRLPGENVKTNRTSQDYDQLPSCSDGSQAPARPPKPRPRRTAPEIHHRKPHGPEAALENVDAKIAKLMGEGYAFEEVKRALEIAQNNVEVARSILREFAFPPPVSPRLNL

Experimental findings from paper PMC4545789 are described below.

The target in this assay is aryl hydrocarbon receptor (AhR) (human (endogenous in HL-60)) (UniProt P35869). Description: FRET or BRET; flow cytometry FRET in HL-60 cells fixed with 2% paraformaldehyde and permeabilized with ice cold methanol; endogenous proteins labelled with mouse and rabbit primary antibodies and Alexa 488 (donor) and Alexa 594 (acceptor) secondary antibodies; cells untreated or treated with 1 uM RA, 100 nM FICZ, 1 uM alpha-NF, 1 uM beta-NF as indicated; isotype controls included.

For Cbl-b (from UniProt Q13191 1-982), the binding entry is recorded as “binds”.
